Source: US20240209016A1, “FLUORESCENT NUCLEOSIDE PHOSPHATES” (STEALTH LABELS BIOTECH AB, priority 2021, published 2024)
Entries after “also recorded” stand apart in the source; their conditions may differ.

Tested on: Huh-7 cells
Assay: Cellular uptake and localisation by confocal fluorescence microscopy
Type: cell-based, human
Details: 2.5 μM, 20 h, 37° C., live cells
Text: Confocal Laser Scanning Fluorescence Microscopy: Images were captured using a Nikon eclipse Ti microscope with a Nikon C2plus scanner, two parallel Gallium arsenide phosphide (GaAsP) detectors, and an Apo 60x Oil μS DIC N2 objective. To excite the fluorescent nucleoside triphosphates the 405 nm laser line was used, and the emission was collected between 407-607 nm. To optimize the signal while avoiding photobleaching of the compounds a laser power of 2% and a detector gain of 4% was applied. For live cell imaging, Huh-7 cells were seeded in a four-compartment dish (CELLview Dishes, Greiner Bio-One) with glass bottom as described above. During imaging the dish was placed in a stage top incubation chamber (OKO lab) maintaining 37° C. and 5% CO2.
Time-lapse Imaging: To image the uptake of compounds 7 and 17 over time, the time-lapse setup of the NIS software was used. […]
Results: To explore the cellular uptake of compounds 7 and 17, they were added to Huh-7 cells in CCM and the uptake was monitored as function of time using a confocal fluorescence microscope (FIG. 4). Control cells, exposed to CCM alone, were imaged using the same microscopy settings and recorded as reference to probe for cellular autofluorescence levels. […]

Substance | intracellular accumulation and localisation
((2R,3S,4R,5R)-5-(2,3,5,6-tetraazacyclopenta[de]tetracen-2(6H)-yl)-3,4-dihydroxytetrahydrofuran-2-yl)methyl hydrogen triphosphate [pATP] | accumulates in the cytosol, but not in the cell nucleus; also recorded: accumulates preferentially in the cytosol
((2R,3S,4R,5R)-5-(8-cyano-2,3,5,6-tetraazaaceanthrylen-2(6H)-yl)-3,4-dihydroxytetrahydrofuran-2-yl)methyl hydrogen triphosphate [2CNqATP] | seemingly evenly distributed across the cytosol and cell nuclei
